We go through one molecule from publication PMC9638930, “Structural basis of flagellar motility regulation by the MogR repressor and the GmaR antirepressor in Listeria monocytogenes” (Nucleic Acids Research, 2022).

In the test the target is MogR DBD protein (MogRD; residues 1–162) (Listeria monocytogenes) (UniProt P0DJO8). Briefly: SEC; Superdex 200 10/300 at room temperature, 20 mM Hepes pH 7.4, 150 mM NaCl, 5 mM βME; GmaRFL, MogRD and their 1:1 molar mixture; both purified.

No constants are given. Whether binding was seen depends on the method and setting.

B1: MogR DBD protein (MogRD; residues 1–162) (domain or fragment, UniProt P0DJO8 1-162)
chain: MPKSEIRKLLQEIKKQVDNPGNSSTTEIKKMASEAGIDEQTAEEIYHLLTEFYQAVEEHGGIEKYMHSNISWLKIELELLSACYQIAILEDMKVLDISEMLSLNDLRIFPKTPSQLQNTYYKLKKELIQVEDIPKNKPGRKRKTQKNTKKEKTNIFGKVVPA
B1: the binding result was “no binding”.
